# Screening data, single-dose tests

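Phenotypic screen: M. tuberculosis growth, glucose 7H9 medium, 3 days; the read-out is not stated. Concentration: 50 µM. Higher reads as more growth inhibition (inferred: compounds with an IC50 in retests scored well above the rest). Of about 69,000 compounds tested this way, about 760 (1.1%) reached 50% or more in at least one test.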

Values are the deposited “Percent Effect”, in %. The record does not define 0% and 100%; most values in the screen are far below 50% and negative numbers occur (in some assays of this library far below -100). This is an unselected part of the compounds tested. Two or more numbers in one place are separate tests of the same structure; such repeats can differ widely.

SMILES,effect
[H][C@@]12CCCC[C@]1(O)CCN(C(=O)c1ccc(OC)c(OC)c1)C2,-40.42%
Cc1ccccc1OCC(=O)N1CCCC(CNS(C)(=O)=O)C1 (stereo unspecified),25.33%
Cc1ccc(C(=O)N2CC[C@@]3(C[C@@H](NS(C)(=O)=O)CCO3)C2)s1,-7.15%
COc1ccc(-c2cccc(-c3ccn(CC4COCCO4)n3)c2)nn1 (stereo unspecified),24.57%
Cc1cc(O)c(OCC(=O)Nc2nccs2)cn1,27.92%
CC(=O)N1CCCC(Cc2cncc(Br)c2)CC1 (stereo unspecified),-13.96%
CC[C@H](C)[C@H](N)C(=O)N1CC(=O)c2sc(Nc3ccc(F)cc3)nc2C1,6.485%
Cc1noc(C)c1C(=O)N1CCCC(c2nccn2Cc2cscn2)C1 (stereo unspecified),1.123%
CC(NC(=O)CCN1CCOC1=O)(c1ccccc1)c1ccccc1,14.9%
CN(Cc1cc2n(n1)CCNC2)Cc1noc(C2CCC2)n1,-24.93%
O=C(O)C(F)(F)F.O=C(O)C(F)(F)F.[H][C@@]12C[C@H](C(=O)N(C)C)CN(Cc3ccc4ccccc4n3)[C@]1([H])CCO2,-69.9%
Cc1nc(C2CCCN(C(=O)CCn3ccccc3=O)C2)no1 (stereo unspecified),2.529% and -12.5%
CCN1CCCCC1C(=O)N1CCC(OC2CCCC2)CC1 (stereo unspecified),1.514%
O=C(O)C(F)(F)F.O=C(c1ccc(F)cc1)N1CCC2(CC1)CC(N1CCOCC1)C2,-13.7%
CCc1ccc(CN2CCNC(C(=O)N3CCN(C)CC3)C2)nc1 (stereo unspecified),27.66%
CC(=O)Nc1nc2c(s1)C(C)(C)Nc1ccccc1S2,-11.5%
O=C(c1cccc(NCCOc2ccc(F)cc2)c1)N1CCOCC1,-9.122%
COc1ccc(N2CCC(NC(=O)c3ccc(C#N)cc3)CC2)cc1,8.319%
CC(=O)Nc1ccc(CNCC(O)c2ccc(Cl)cc2)cc1 (stereo unspecified),-12.43%
Cc1cccc2[nH]c(C3CCN(C(=O)c4cccnn4)CC3)nc12,-41.49%
CCOCCCNc1nc2c(s1)c(C)nn2C,2.76% and 6.824%
Cl.c1cc(CNCc2ccc3c(c2)CCO3)cc(N2CCOCC2)n1,-8.241%
CCCN(C(=O)CNC1CCc2ncnn2C1)C1=CCCCC1 (stereo unspecified),-4.781%
Cc1nc(CN2CCC3(CCN(c4cnn(C)c4)C3=O)C2)cs1.O=C(O)C(F)(F)F (stereo unspecified),12.64%
O=C(c1cn(Cc2ccccc2)c2ncccc12)N1CCCCC1,-23.6%
CN(C)C(=O)CN1CCC2(CCCN(Cc3cccs3)C2)C1=O.O=C(O)C(F)(F)F (stereo unspecified),-6.741%
c1ncn(CC2CN(CC3CCCC3)CCO2)n1 (stereo unspecified),-19.24%
CC(=O)N1CCCc2cc(Nc3nccn(C)c3=O)ccc21,4.392%
Cc1noc(CCCc2nc(C3CCOC3)no2)n1 (stereo unspecified),0.5069%
Cc1nc2n(n1)CC(NCc1nc(C)c(C)o1)CC2 (stereo unspecified),30.22%
Cc1cc(CNC(=O)c2cccs2)ccc1S(C)(=O)=O,-28.69%
CCCc1cc(NCc2nc(COC)no2)n2nccc2n1,-0.881%
Cc1noc(C)c1C(=O)N(C)C(C)c1ccc(S(C)(=O)=O)cc1 (stereo unspecified),10.11% and -4.338%
CC(C)c1nc2n(n1)CC(NCc1ncc(C(C)(C)C)o1)CC2 (stereo unspecified),-31.87%
Cn1cc(CN2CCC(CCC(=O)NC3CC3)CC2)cn1,-16.21%
Cc1ncsc1-c1nnc(C2CCN(Cc3cccc(F)c3F)CC2)o1,-80.26%
CC(C)c1nc(C2CCCN2CCS(=O)(=O)c2ccccc2)no1 (stereo unspecified),-13.47%
O=C(O)C(F)(F)F.O=C(O)C(F)(F)F.c1ccc(O[C@H]2CO[C@@]3(CCCN(Cc4nccs4)C3)C2)nc1,-27.56%
Cc1ccc(NC(=O)c2nc3c(s2)CCCN3C(C)C)cn1,-15.16%
Cc1cc(O)nc(C2CN(CCC(F)(F)F)CCO2)n1 (stereo unspecified),-21.52%
COCCOCC(=O)N1CCC(c2ccccc2F)C1 (stereo unspecified),-13.09%
[H][C@]12CCN(S(=O)(=O)c3ccc(OC)cc3)[C@@]1([H])CC[C@@H](COC)O2,9.128%
CCc1csc(C2CCCN(C(=O)c3cc(Cl)c[nH]3)C2)n1 (stereo unspecified),36.28%
O=C(c1cc2c(s1)CCC2)N1CCC(c2cnccn2)CC1,27.85%
CCS(=O)(=O)N1CCCC2(CCCN2Cc2cccc(F)c2)C1.O=C(O)C(F)(F)F (stereo unspecified),0.4778% and 5.167%
[H][C@@]12CCN(C[C@@H]1CC)[C@@H](CNC(=O)Nc1cccc(C#N)c1)C2,-36.73% and 1.3%
O=c1cc(N2CCNCC2)cnn1CCc1ccc(F)cc1,35.09%
Cc1cc(F)cc2c(N3CCC(S(N)(=O)=O)CC3)c(C#N)cnc12,-18.52%
CN1CCC(NC(=O)c2cc(F)cc(Cl)c2O)C1=O (stereo unspecified),13.27%
CN(C)S(=O)(=O)N1CCCC1C(=O)N1CCSCC1 (stereo unspecified),-46.33% and -13.43%
C[C@@H]1CN(S(=O)(=O)N2CCOCC2)C[C@@]1(O)C1CC1,9.476% and 3.119%
O=C1NC[C@]2(CC[C@@H](C(=O)N3CCCC(O)C3)CC2)Oc2ccccc21 (stereo partly specified),20.31%
Cc1cc(-c2cnc(NC3CCCC3)nc2-c2ccc(C)o2)on1,25.44%
CCc1oc(C(=O)N[C@@H]2c3ccccc3C[C@@H]2O)cc1C,25.28%
C=C(C)COc1ccccc1NC(=O)N1CCOCC1CO (stereo unspecified),-1.668%
Cc1n[nH]c(C2CN(C(=O)c3cc4c(s3)CCCC4)CCO2)n1 (stereo unspecified),-16.18%
Cc1nc2c(c(NC3CC3)n1)CCN(C(=O)C1(C#N)CC1)CC2,-18.07%
COc1cc(C2CC(=O)Oc3cc(C)[nH]c(=O)c32)ccc1OC(F)F (stereo unspecified),2.222%
CSC(C)C(=O)Nc1ccnn1-c1ccccc1C (stereo unspecified),0.2992% and -16.88%
O=C(NCC(O)c1ccccc1)Nc1cccs1 (stereo unspecified),-5.363% and -38.31%
CC(C)Oc1ccc(CC2=N[C@](C)(CO)CO2)cc1,-30.83% and -10.03%
CC(NC(=O)c1ccc(=O)n(C)c1)c1ccccc1-n1cccn1 (stereo unspecified),-1.876%
CN1CCCCC1C(=O)N1CCN(c2ccccc2C#N)CC1 (stereo unspecified),12.65%
Cc1ncsc1CN(C)Cc1cc2c(cc1OC(F)F)OCO2,-4.265%
O=C(CC(SC1CCCCC1)C(=O)O)c1ccc(Cl)cc1 (stereo unspecified),9.413% and 8.927%
Cc1ccc2c(c1)CCC2NCc1c(C)nn(C)c1N1CCOCC1.Cl (stereo unspecified),-5.341%
COc1cccc2[nH]cc(CCNC(=O)N3CCCC3CO)c12 (stereo unspecified),8.094% and 0.7333%
CCOC(=O)C1CC2(CCCCC2)N2CCC(=O)N12 (stereo unspecified),9.411%
[H][C@@]12CS(=O)(=O)C[C@]1([H])N(C(=O)c1ccc3nc(C)oc3c1)CCN2CCC,-18.33% and -2.698%
CN(Cc1cnn(C)c1)C(=O)NC1CCN(Cc2ccccn2)CC1,-2.162%
[H][C@]12CCCCN1CCC[C@H]2CCc1nc(C(C)C)no1,-9.929%
COCCN(Cc1ccncc1)C(=O)C1COc2ccccc2C1 (stereo unspecified),-19.2% and -6.962%
Cc1nc(N2CCOCC2)nc2c1CCN(Cc1nccn1C)CC2.O=C(O)C(F)(F)F,-24.49%
Cc1nc2cc(-c3nccn3C)nn2c(N2CCCC(CO)C2)c1C (stereo unspecified),-31.58%
Cn1nc2c(cc1=O)CN(Cc1coc(-c3cccc(F)c3)n1)CC2,5.88%
CC(C)N1CCC(N2CCN(C3CCCCC3)CC2CCO)CC1 (stereo unspecified),8.551%
Cc1ccccc1CN1CCC2(CCCN2C(=O)C(C)C)CC1,2.893%
Cc1nc2cc(OCc3nc(C(=O)NC(C)(CO)CO)co3)ccc2s1,-22.83%
Cl.Cn1nc(C2CCN(C(=O)Cc3ccsc3)CC2)c2cccnc21,9.93%
CC(C)(C)c1ncc(CNCC2CN(C3CC3)CCO2)s1 (stereo unspecified),24.7%
Cc1nn(CCC#N)c(C)c1[C@@H]1C=C[C@@H](NCc2ccc(F)cc2)C1,10% and -15.49%
CC(=O)c1cc(C(=O)NC2(c3ccccc3)CCC2)n(C)c1,2.461%
CN(Cc1cn(CC2CCNCC2)nn1)CC1CCCCO1 (stereo unspecified),0.7918%
O=S(=O)(Nc1cnn(C2CCOCC2)c1)c1ccc(F)c(F)c1,11.53%
Cc1nc(N2CCCC2)nc2c1CN(C(C)C)CC2.O=C(O)C(F)(F)F,32.35%
O=C(C1CCN(Cc2nc(-c3ccco3)no2)CC1)N1CCCC1,-26.84%
Cn1cc(CCCNC(=O)NC2CCN(c3ccccc3)C2=O)cn1 (stereo unspecified),-2.979%
Cn1cncc1CN1CCCC1c1cncc(Oc2ccc(F)cc2)n1 (stereo unspecified),62.76%
Cc1cc(C(=O)N2CCCC2CN2CCCC2)no1 (stereo unspecified),-29.03%

Data taken from ChEMBL document CHEMBL3988442, “University of Dundee, Small-Polar-MMV Screening Library” (2021).